The text below walks through data of PMC8578170, “Electron carriers involved in autotrophic and heterotrophic acetogenesis in the thermophilic bacterium Thermoanaerobacter kivui” (Extremophiles, 2021).

Amino acid sequences for entries named in this document (tags omitted). A change or cut given only in a name is not applied to a line headed by its entry.
UniProt A0A097ATJ4: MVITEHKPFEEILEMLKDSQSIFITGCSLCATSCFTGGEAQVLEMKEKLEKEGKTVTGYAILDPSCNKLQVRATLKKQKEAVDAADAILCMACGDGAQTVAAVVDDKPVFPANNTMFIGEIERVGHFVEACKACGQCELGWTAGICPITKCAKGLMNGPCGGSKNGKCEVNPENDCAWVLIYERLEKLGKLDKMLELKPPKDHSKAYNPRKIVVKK

Assay [1] concerns the target T1, MetF subunit of the methylene-THF reductase MetFV of T. kivui (Thermoanaerobacter kivui).
T1 sequence: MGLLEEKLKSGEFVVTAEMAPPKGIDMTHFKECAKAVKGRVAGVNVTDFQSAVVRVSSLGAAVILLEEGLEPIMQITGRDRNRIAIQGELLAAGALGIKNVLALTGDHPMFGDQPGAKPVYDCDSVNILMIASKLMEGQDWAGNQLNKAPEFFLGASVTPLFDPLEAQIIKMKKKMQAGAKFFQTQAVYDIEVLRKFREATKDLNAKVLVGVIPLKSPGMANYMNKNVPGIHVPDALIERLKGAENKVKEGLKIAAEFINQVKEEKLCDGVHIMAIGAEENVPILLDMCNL
The experiment in a line: co-purification (Ni2+-NTA affinity chromatography, then size exclusion chromatography; SDS-PAGE with Coomassie stain); His-tagged complex produced in T. kivui, purified from CFE on Ni2+-NTA resin and Superdex 200 under anoxic conditions at room temperature; subunits seen on a 12% SDS-polyacrylamide gel. (Size exclusion chromatography separates by hydrodynamic size, large species first.)

Assay [2] addresses HydA subunit of the electron-bifurcating hydrogenase HydABC of T. kivui, with 10x His-tag (Thermoanaerobacter kivui). Described as above.

Results are given in words; binding and its absence hold for the method and conditions named. Binding seen in cells or lysates may run through a third protein. Binding calls can cover weak binding; strength is not graded here.

With “MetV subunit of the methylene-THF reductase MetFV of T. kivui (from UniProt A0A097ATJ4)”, in assay [1], the binding entry is on record as “binds”.

B1: HydC subunit of the electron-bifurcating hydrogenase HydABC of T. kivui (protein, UniProt A0A097ATI0 1-170)
chain: MCNCCCKGSKDPRFEKVDEILSKLANERGALIAILQHVQHEFGYLPEDVIFYIASKTGIPASKIYGVATFYAQFHLKPRGKYVIRVCLGTACHVKGANKILAEFEKQLGIKAGETTSDLKFTLERVGCLGACGLAPTVMVNEKTYGKMTPEKVSEVLKEYSDVEAAASAQ
With B1, the binding result in assay [2] is listed as “binds”.

B2: HydB subunit of the electron-bifurcating hydrogenase HydABC of T. kivui (protein, UniProt A0A097ATG4 1-630)
chain: MVKLKSIQELENLREKIKEAKKKEKIVIRICGGTGCRASGSLAVRDELVKVLKREGFANVDVNLSSDCLENTSEVHVKMTGCQGFCAQGPLMTIEPLGVFYVGVKPEDVEEIVEKSIKKNEIIERLLYHDPATGKTYVKRDENPFYAKQTRLVLKHCGTVDPASVYDYIAEGGYSAIAKALTMDRKQIIDEVIKSGLRGRGGAGFPTGEKWLGAYKNQSPKKYIICNGDEGDPGAFMDRSVMEGDPHKVIEGMMIGAYAIGSDEGYIYVRAEYPLAVQMLRKAIEECEKLGLLGDNILGTGFSFRLHVREGAGAFVCGESTALTYSIEGKRGMPRVRPPRTNECGLWEMPTVLNNVETFACIPEIILNGGEWFASIGTPTSTGTKIFALSGKVNRTGLVEVPMGLKLRELIFDIGGGIANNKKFKAVQLGGPSGGCVPESQLDLPIDFDSLSKAGAIMGSGGVVVVDEDTCMVDFAKFFTNFIVEESCGKCIPCREGNKKMLEILERITEGKGKEGDIELLEELGDVIISASLCGLGKTAPNPVLSTIKHFRDEYEAHIRDKKCPAGACQALAAYKIDPGKCIGCGKCVKVCPVGAISGEKKKPHVIDQSKCIKCGACAENCPKGAIYKG
With B2, in assay [2], the binding entry is on record as “binds”.
